Assay results published in the supplement of paper PMC9233669.
Variants at the background level are over-represented here.

Assays:
biotinyl-Phe-oxazolone = assay: self-aminoacylation, catalytic enhancement (BFO) (fold over background); higher = more active; k-Seq, kA / k0A0; sequences stand for … in GGGAAUGGAUCCACAUCUACGAAUUC…UUCACUGCAGACUUGACGAAGCUG
In short: (§1)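 Catalytic enhancement equals the median kA over the uncatalyzed rate, the latter read from the low-activity peak of a bimodal Gaussian fit. Values of kA came from fitting each sequence's fraction reacted to a pseudo-first-order model, with 1000 bootstraps. Reacted RNA was captured with streptavidin and quantified by triplicate qPCR and Illumina sequencing after 90 minutes at room temperature with 2–1250 μM biotinyl-aminoacyl-oxazolone and 0.43 μM mutagenized RNA pools bearing a 21-nt variable region.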

biotinyl-Trp-oxazolone = assay: self-aminoacylation, catalytic enhancement (BWO) (fold over background); higher = more active; k-Seq, kA / k0A0; sequences stand for … in GGGAAUGGAUCCACAUCUACGAAUUC…UUCACUGCAGACUUGACGAAGCUG
In short: as §1

biotinyl-Met-oxazolone = assay: self-aminoacylation, catalytic enhancement (BMO) (fold over background); higher = more active; k-Seq, kA / k0A0; sequences stand for … in GGGAAUGGAUCCACAUCUACGAAUUC…UUCACUGCAGACUUGACGAAGCUG
In short: as §1

biotinyl-Leu-oxazolone = assay: self-aminoacylation, catalytic enhancement (BLO) (fold over background); higher = more active; k-Seq, kA / k0A0; sequences stand for … in GGGAAUGGAUCCACAUCUACGAAUUC…UUCACUGCAGACUUGACGAAGCUG
In short: as §1

biotinyl-Val-oxazolone = assay: self-aminoacylation, catalytic enhancement (BVO) (fold over background); higher = more active; k-Seq, kA / k0A0; sequences stand for … in GGGAAUGGAUCCACAUCUACGAAUUC…UUCACUGCAGACUUGACGAAGCUG
In short: as §1

biotinyl-Ile-oxazolone = assay: self-aminoacylation, catalytic enhancement (BIO) (fold over background); higher = more active; k-Seq, kA / k0A0; sequences stand for … in GGGAAUGGAUCCACAUCUACGAAUUC…UUCACUGCAGACUUGACGAAGCUG
In short: as §1

| Sequence | self-aminoacylation (biotinyl-Phe-oxazolone) | self-aminoacylation (biotinyl-Trp-oxazolone) | self-aminoacylation (biotinyl-Met-oxazolone) | self-aminoacylation (biotinyl-Leu-oxazolone) | self-aminoacylation (biotinyl-Val-oxazolone) | self-aminoacylation (biotinyl-Ile-oxazolone) |
| --- | --- | --- | --- | --- | --- | --- |
| AUUACCCUGGUCAUGGAGAGA [Fam2.1 aminoacylation ribozyme variant] | 1.19 | 1.77 | 0.941 | 1.2 | 1.18 | 0.877 |
| AUUACCCUGGUCAUUGACUGA [Fam2.1 aminoacylation ribozyme variant] | 0.473 | 0.357 | 0.623 | 0.592 | 0.929 | 0.921 |
| AUUACCCUGGUCCUCGAGUCA [Fam2.1 aminoacylation ribozyme variant] | 1.17 | 0.7 | 0.922 | 0.792 | 1.12 | 0.852 |
| AUUACCCUGGUCUUCGAGUCA [Fam2.1 aminoacylation ribozyme variant] | 0.638 | 0.688 | 0.844 | 0.903 | 0.873 | 0.953 |
| AUUACCCUGUUCAUCGUGUGA [Fam2.1 aminoacylation ribozyme variant] | 43.7 | 8.71 | 6.29 | 6.24 | 3.04 | 3.1 |
| AUUACCCUUGUCAUCGAGUUA [Fam2.1 aminoacylation ribozyme variant] | 0.904 | 0.71 | 1.07 | 0.851 | 0.992 | 1.04 |
| AUUACCGUGCUCAUCGAGUGA [Fam2.1 aminoacylation ribozyme variant] | 2.01 | 3.33 | 2.12 | 2.64 | 1.68 | 1.7 |
| AUUACCGUGGUCAACGAGUGA [Fam2.1 aminoacylation ribozyme variant] | 36.7 | 9.2 | 6.41 | 7.25 | 4.21 | 3.61 |
| AUUACCGUGGUCAUCGAGUUA [Fam2.1 aminoacylation ribozyme variant] | 0.524 | 0.691 | 0.946 | 0.897 | 1.02 | 1.09 |
| AUUACCUUCGUCAUCGAGUGA [Fam2.1 aminoacylation ribozyme variant] | 2.48 | 2.15 | 2.22 | 2.18 | 1.67 | 1.76 |
| AUUACCUUGGUCAGCGAGUGA [Fam2.1 aminoacylation ribozyme variant] | 21.5 | 6.84 | 5.05 | 5.38 | 3.08 | 3.26 |
| AUUACGGUGGUCAUCGAGUGA [Fam2.1 aminoacylation ribozyme variant] | 5.75 | 3.24 | 2.68 | 2.56 | 2.09 | 2.44 |
| AUUACUCCGGUCAUCGAGUGA [Fam2.1 aminoacylation ribozyme variant] | 16 | 5.76 | 5.22 | 5.43 | 2.64 | 2.81 |
| AUUACUCUUGUCAUCGAGUGA [Fam2.1 aminoacylation ribozyme variant] | 22 | 7.7 | 6.03 | 6.33 | 3.45 | 3.58 |
| AUUAGCCUGGUCAUCGAGAGA [Fam2.1 aminoacylation ribozyme variant] | 1.49 | 1.35 | 1.08 | 1.43 | 1.25 | 1.63 |
| AUUAUCCCGGUCAUCGAGUGA [Fam2.1 aminoacylation ribozyme variant] | 61.2 | 11 | 8.46 | 10.6 | 4.35 | 4.32 |
| AUUAUCCUGGUCAUAGAGUGA [Fam2.1 aminoacylation ribozyme variant] | 59 | 11.7 | 9.86 | 10.1 | 4.11 | 4.58 |
| AUUAUCCUGGUCAUCGAGUGG [Fam2.1 aminoacylation ribozyme variant] | 6.09 | 4.05 | 5.06 | 5.03 | 2.27 | 2.19 |
| AUUCAACUAUGUCAUCGGGUG [Fam2.2 aminoacylation ribozyme variant] | 33.1 | 4.57 | 4.78 | 6.15 | 2.45 | 3.08 |
| AUUCACACAGGUCAUCGGGUG [Fam2.2 aminoacylation ribozyme variant] | 39.6 | 5.26 | 5.6 | 7.14 | 4.47 | 4.03 |
| AUUCACCAAGGUCAUCGGGUA [Fam2.2 aminoacylation ribozyme variant] | 22.5 | 4.89 | 2.43 | 3.23 | 3.04 | 3.77 |
| AUUCACCCUGGUCAUCGGGUG [Fam2.2 aminoacylation ribozyme variant] | 71 | 10.6 | 10.6 | 11.5 | 5.5 | 5.16 |
| AUUCACCGAGGUGAUCGGGUG [Fam2.2 aminoacylation ribozyme variant] | 29.6 | 3.05 | 4.75 | 6.59 | 4.15 | 3.8 |
| AUUCACCGAUGUCAUCGGGUG [Fam2.2 aminoacylation ribozyme variant] | 62.7 | 7.35 | 8.67 | 10.8 | 4.63 | 5.59 |
| AUUCACCUACGUCAACGGGUG [Fam2.2 aminoacylation ribozyme variant] | 9.97 | 2.84 | 2.35 | 3.09 | 1.64 | 1.6 |
| AUUCACCUAGAUCAUCGGGUC [Fam2.2 aminoacylation ribozyme variant] | 0.334 | 0.676 | 0.839 | 0.742 | 0.844 | 0.889 |

| Sequence | self-aminoacylation (biotinyl-Phe-oxazolone) | self-aminoacylation (biotinyl-Trp-oxazolone) | self-aminoacylation (biotinyl-Met-oxazolone) | self-aminoacylation (biotinyl-Leu-oxazolone) | self-aminoacylation (biotinyl-Val-oxazolone) | self-aminoacylation (biotinyl-Ile-oxazolone) |
| --- | --- | --- | --- | --- | --- | --- |
| AUUCACCUAGCUCAUCGUGUG [Fam2.2 aminoacylation ribozyme variant] | 0.582 | 0.512 | 0.74 | 0.769 | 0.698 | 0.587 |
| AUUCACCUAGGACAUCCGGUG [Fam2.2 aminoacylation ribozyme variant] | 31 | 4.47 | 5.98 | 6 | 6.22 | 7.62 |
| AUUCACCUAGGAUAUCGGGUG [Fam2.2 aminoacylation ribozyme variant] | 44.1 | 5.47 | 6.65 | 7.35 | 3.64 | 3.31 |
| AUUCACCUAGGCCAUCAGGUG [Fam2.2 aminoacylation ribozyme variant] | 0.936 | 0.695 | 1.37 | 1.2 | 1.09 | 1.29 |
| AUUCACCUAGGGCAUCGUGUG [Fam2.2 aminoacylation ribozyme variant] | 0.773 | 0.529 | 0.813 | 0.708 | 0.729 | 0.742 |
| AUUCACCUAGGUAAGCGGGUG [Fam2.2 aminoacylation ribozyme variant] | 14.3 | 2.31 | 2.73 | 2.75 | 1.48 | 1.9 |
| AUUCACCUAGGUCACCGUGUG [Fam2.2 aminoacylation ribozyme variant] | 4.55 | 1.24 | 1.33 | 1.48 | 1.33 | 1.13 |
| AUUCACCUAGGUCAGCAGGUG [Fam2.2 aminoacylation ribozyme variant] | 1.04 | 0.93 | 1.41 | 1.2 | 1.21 | 1.2 |
| AUUCACCUAGGUCAUCAGGUU [Fam2.2 aminoacylation ribozyme variant] | 0.535 | 0.326 | 0.863 | 0.783 | 0.86 | 0.885 |
| AUUCACCUAGGUCAUCCGGAG [Fam2.2 aminoacylation ribozyme variant] | 0.862 | 1.72 | 1.15 | 1.3 | 1.42 | 1.4 |
| AUUCACCUAGGUCAUCGGACG [Fam2.2 aminoacylation ribozyme variant] | 0.655 | 0.685 | 0.698 | 0.707 | 0.744 | 0.617 |
| AUUCACCUAGGUCAUCGGGUC [Fam2.2 aminoacylation ribozyme variant] | 1.93 | 1.5 | 1.69 | 1.9 | 1.6 | 1.38 |
| AUUCACCUAGGUCAUCGUAUG [Fam2.2 aminoacylation ribozyme variant] | 0.528 | 0.207 | 0.503 | 0.553 | 0.737 | 0.593 |
| AUUCACCUAGGUCAUUGGAUG [Fam2.2 aminoacylation ribozyme variant] | 0.531 | 0.349 | 0.56 | 0.541 | 0.546 | 0.605 |
| AUUCACCUAGGUCUUCGGGUG [Fam2.2 aminoacylation ribozyme variant] | 27.4 | 4.38 | 4.46 | 5.48 | 3.71 | 3.33 |
| AUUCACCUAGGUGGUCGGGUG [Fam2.2 aminoacylation ribozyme variant] | 18.3 | 3.42 | 2.41 | 4.09 | 2.77 | 2.49 |
| AUUCACCUAGGUUAGCGGGUG [Fam2.2 aminoacylation ribozyme variant] | 19.7 | 3.43 | 2.98 | 2.9 | 2.22 | 2.55 |
| AUUCACCUAGUUCAGCGGGUG [Fam2.2 aminoacylation ribozyme variant] | 15.9 | 2.62 | 2.76 | 3.34 | 2.28 | 2.07 |
| AUUCACCUCGGUCAUCGUGUG [Fam2.2 aminoacylation ribozyme variant] | 3.14 | 0.839 | 0.955 | 1.1 | 1.09 | 0.786 |
| AUUCACCUGGAUCAUCGGGUG [Fam2.2 aminoacylation ribozyme variant] | 15.1 | 3.31 | 2.39 | 3.12 | 3.08 | 2.55 |
| AUUCACGUAGGUCAACGGGUG [Fam2.2 aminoacylation ribozyme variant] | 21.1 | 4.47 | 3.95 | 4.96 | 3.15 | 2.77 |
| AUUCACGUAGGUCAUUGGGUG [Fam2.2 aminoacylation ribozyme variant] | 25.2 | 4 | 4.43 | 5.11 | 4 | 3.18 |
| AUUCACUUAGGUAAUCGGGUG [Fam2.2 aminoacylation ribozyme variant] | 19.6 | 2.72 | 3.11 | 3.33 | 1.97 | 1.7 |
| AUUCACUUAGGUCAUCAGGUG [Fam2.2 aminoacylation ribozyme variant] | 1.49 | 1.57 | 1.52 | 1.68 | 1.26 | 1.23 |
| AUUCAGCUACGUCAUCGGGUG [Fam2.2 aminoacylation ribozyme variant] | 10.1 | 3.07 | 1.98 | 2.71 | 2.02 | 1.9 |
